# Assay results from the supplement of paper PMC6411743.
# Sequences of proteins named here, by UniProt entry; tags and fusion partners are left off. A change or cut given only in a name is not applied to a line headed by its entry.
# UniProt P51817: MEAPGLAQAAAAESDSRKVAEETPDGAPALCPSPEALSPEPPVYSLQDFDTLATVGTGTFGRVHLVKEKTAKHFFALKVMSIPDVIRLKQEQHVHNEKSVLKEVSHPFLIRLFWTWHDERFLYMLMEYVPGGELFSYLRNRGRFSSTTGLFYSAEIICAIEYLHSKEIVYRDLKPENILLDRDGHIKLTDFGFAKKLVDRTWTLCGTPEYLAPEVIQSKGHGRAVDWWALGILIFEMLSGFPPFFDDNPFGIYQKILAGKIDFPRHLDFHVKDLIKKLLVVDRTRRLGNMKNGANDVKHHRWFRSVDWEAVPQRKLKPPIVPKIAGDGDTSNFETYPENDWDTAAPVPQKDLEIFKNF
# UniProt P49641: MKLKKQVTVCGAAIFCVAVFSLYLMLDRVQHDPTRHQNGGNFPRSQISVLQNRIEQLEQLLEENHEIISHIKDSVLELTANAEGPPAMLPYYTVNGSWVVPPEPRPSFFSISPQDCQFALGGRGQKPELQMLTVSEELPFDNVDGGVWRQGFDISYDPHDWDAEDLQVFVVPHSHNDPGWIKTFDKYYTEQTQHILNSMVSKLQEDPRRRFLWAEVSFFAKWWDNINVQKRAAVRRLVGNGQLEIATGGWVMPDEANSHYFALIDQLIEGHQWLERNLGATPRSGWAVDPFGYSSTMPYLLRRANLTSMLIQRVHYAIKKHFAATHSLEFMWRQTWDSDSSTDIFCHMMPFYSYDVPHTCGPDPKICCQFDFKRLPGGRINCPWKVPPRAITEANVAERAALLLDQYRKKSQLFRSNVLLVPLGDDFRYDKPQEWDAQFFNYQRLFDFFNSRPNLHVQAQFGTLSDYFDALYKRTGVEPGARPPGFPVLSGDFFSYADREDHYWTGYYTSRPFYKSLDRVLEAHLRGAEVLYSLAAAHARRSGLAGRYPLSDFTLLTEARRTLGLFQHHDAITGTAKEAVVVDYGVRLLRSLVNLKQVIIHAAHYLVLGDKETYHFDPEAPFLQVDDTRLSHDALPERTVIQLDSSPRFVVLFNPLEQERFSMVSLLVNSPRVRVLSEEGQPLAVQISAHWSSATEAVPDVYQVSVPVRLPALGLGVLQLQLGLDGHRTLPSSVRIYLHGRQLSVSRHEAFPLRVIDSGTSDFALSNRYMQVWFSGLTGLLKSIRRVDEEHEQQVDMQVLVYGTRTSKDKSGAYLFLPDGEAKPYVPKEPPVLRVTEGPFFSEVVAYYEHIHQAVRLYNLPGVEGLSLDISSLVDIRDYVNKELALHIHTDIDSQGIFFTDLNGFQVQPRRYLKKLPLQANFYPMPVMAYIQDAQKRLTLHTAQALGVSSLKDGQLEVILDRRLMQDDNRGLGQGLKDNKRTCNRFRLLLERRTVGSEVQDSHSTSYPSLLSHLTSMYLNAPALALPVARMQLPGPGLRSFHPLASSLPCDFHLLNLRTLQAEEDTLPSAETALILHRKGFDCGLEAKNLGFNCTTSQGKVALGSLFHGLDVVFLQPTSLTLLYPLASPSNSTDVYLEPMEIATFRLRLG
# UniProt P52758: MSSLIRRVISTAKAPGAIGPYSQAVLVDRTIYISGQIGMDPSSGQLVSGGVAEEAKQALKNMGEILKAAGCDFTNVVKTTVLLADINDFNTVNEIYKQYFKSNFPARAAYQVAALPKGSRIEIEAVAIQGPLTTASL
# UniProt P43362: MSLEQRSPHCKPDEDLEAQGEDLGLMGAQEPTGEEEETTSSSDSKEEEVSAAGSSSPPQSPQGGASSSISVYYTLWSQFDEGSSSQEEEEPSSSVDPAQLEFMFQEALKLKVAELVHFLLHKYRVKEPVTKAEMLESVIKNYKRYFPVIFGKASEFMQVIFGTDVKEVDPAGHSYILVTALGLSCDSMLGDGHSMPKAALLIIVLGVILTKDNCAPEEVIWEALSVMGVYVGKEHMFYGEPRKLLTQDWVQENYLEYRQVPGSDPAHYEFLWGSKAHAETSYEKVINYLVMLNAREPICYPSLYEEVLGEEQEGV
# UniProt P42898: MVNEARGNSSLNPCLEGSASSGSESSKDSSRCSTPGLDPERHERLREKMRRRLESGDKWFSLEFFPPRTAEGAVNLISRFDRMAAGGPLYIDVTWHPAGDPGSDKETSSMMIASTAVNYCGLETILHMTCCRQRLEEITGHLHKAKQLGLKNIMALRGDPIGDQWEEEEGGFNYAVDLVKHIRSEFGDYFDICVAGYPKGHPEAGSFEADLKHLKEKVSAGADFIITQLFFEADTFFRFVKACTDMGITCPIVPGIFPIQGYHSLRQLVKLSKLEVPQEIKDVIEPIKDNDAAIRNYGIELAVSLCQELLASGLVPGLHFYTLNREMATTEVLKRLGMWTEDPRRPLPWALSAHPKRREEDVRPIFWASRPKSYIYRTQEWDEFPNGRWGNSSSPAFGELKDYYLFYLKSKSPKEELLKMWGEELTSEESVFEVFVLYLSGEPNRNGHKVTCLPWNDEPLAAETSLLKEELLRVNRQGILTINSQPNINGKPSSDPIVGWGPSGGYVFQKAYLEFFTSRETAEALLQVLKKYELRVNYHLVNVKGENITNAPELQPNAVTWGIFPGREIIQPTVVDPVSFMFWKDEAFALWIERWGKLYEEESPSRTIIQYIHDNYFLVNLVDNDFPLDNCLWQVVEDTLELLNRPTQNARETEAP
# UniProt P51948: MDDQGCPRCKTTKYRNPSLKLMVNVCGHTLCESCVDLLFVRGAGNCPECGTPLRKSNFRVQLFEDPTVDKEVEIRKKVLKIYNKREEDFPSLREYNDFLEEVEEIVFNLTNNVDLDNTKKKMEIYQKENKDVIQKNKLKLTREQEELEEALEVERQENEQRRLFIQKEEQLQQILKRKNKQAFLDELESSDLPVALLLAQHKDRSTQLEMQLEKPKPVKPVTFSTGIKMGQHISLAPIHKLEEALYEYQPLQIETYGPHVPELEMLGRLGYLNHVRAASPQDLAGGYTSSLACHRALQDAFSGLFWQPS
# UniProt P49588, whole entry: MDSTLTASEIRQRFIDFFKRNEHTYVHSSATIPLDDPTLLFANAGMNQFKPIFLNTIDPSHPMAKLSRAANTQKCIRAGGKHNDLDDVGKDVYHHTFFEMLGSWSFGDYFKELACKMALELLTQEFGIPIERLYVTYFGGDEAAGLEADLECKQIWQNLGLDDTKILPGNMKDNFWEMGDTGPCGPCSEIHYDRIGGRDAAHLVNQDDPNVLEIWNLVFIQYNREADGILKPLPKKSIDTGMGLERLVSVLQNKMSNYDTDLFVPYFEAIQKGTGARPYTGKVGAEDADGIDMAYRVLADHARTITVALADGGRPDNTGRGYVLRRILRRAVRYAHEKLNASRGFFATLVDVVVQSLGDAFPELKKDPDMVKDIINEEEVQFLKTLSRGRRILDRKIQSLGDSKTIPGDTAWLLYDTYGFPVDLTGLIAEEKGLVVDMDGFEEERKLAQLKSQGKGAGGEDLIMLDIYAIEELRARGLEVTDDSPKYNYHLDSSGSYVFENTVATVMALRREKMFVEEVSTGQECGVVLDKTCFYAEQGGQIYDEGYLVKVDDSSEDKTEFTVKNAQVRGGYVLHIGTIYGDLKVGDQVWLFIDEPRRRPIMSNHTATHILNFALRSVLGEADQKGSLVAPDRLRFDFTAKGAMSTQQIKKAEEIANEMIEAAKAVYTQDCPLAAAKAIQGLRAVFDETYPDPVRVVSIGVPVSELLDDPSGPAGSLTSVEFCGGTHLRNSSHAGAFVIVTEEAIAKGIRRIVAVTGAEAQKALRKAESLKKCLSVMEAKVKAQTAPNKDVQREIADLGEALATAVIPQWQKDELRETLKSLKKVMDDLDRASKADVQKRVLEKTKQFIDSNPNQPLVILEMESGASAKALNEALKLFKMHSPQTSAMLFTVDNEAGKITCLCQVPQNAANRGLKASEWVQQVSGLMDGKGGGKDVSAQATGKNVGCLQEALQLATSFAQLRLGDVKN
# UniProt P42226: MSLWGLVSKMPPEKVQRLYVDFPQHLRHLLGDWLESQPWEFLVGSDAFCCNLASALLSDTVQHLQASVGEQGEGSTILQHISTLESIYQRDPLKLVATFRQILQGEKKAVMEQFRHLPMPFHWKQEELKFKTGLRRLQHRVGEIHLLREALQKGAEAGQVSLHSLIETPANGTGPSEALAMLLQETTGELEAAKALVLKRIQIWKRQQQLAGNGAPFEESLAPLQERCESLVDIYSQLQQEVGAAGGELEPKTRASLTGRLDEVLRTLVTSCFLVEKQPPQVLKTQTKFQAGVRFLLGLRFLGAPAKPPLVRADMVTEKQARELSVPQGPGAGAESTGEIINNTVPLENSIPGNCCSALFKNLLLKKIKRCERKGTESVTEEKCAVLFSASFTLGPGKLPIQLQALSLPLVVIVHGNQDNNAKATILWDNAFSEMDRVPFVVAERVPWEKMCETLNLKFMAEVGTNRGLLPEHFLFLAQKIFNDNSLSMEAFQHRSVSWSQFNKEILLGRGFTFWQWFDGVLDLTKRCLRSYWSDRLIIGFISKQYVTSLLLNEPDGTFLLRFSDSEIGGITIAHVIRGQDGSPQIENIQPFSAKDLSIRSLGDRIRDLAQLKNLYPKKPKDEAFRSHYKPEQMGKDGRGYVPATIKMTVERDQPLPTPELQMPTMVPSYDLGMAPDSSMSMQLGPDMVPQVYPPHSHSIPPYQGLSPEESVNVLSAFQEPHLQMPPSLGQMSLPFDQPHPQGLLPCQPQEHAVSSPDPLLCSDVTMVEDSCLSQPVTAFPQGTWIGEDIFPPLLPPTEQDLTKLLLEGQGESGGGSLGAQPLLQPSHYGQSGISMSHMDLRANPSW
# UniProt P40937, whole entry: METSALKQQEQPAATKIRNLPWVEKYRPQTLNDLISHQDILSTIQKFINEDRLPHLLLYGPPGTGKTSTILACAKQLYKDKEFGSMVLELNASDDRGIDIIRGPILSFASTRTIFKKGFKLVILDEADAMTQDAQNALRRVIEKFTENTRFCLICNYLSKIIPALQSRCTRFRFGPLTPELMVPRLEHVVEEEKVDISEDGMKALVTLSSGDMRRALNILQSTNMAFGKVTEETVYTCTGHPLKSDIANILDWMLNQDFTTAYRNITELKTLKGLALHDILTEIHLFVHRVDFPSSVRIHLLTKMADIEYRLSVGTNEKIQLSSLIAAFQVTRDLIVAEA
# UniProt P42025, whole entry: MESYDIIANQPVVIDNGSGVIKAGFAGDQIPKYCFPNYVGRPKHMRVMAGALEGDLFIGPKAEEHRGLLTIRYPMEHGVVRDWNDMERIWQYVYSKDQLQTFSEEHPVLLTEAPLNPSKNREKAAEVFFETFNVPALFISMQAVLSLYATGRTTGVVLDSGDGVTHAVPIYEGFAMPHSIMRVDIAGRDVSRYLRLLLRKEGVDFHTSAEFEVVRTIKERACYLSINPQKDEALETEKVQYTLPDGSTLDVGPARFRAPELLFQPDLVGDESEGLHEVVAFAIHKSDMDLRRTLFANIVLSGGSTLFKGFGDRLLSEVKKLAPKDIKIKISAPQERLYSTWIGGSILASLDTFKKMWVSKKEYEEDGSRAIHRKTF
# UniProt P50552: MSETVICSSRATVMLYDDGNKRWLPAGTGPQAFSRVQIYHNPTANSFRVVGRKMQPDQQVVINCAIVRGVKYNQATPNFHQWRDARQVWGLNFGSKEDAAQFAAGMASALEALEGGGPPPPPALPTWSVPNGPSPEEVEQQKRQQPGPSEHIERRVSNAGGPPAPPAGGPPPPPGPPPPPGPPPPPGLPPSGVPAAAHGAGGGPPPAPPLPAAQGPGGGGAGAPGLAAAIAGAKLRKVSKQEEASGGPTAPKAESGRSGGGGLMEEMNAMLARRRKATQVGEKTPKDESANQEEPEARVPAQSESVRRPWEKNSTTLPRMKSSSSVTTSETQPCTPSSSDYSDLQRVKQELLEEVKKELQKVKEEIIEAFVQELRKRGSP
# UniProt P50747: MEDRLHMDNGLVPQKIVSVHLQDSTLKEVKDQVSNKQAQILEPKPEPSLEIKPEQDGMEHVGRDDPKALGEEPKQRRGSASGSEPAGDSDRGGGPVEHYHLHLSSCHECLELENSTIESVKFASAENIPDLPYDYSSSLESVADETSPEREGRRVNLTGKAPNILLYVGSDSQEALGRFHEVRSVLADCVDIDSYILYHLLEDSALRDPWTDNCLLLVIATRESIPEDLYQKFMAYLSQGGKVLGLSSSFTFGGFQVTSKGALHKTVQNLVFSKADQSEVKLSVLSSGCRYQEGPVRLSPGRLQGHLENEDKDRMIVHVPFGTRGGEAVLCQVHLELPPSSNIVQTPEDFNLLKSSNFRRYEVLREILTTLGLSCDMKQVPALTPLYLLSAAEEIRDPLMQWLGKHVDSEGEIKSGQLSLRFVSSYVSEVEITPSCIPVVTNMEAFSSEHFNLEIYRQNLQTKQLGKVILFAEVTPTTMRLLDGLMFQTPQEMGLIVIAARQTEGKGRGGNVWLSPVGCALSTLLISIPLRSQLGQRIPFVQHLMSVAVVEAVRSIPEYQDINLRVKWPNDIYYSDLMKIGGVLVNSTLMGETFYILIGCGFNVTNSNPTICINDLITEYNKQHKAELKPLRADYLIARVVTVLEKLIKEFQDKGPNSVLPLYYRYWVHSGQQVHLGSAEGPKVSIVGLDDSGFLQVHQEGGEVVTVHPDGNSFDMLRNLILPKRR
# ± gives the standard deviation of the averaged measurements. The entries are a selection whose mix differs from that of the whole data set. Most values lie at the level of the controls, where differences are scatter.
# Compound: Nc1ncnc2c1ncn2[C@@H]1O[C@H](COP(=O)(O)OP(=O)(O)OP(=O)(O)O)[C@@H](O)[C@H]1O [adenosine triphosphate]
# Assay: NP40-soluble protein abundance relative to vehicle (solubility fold change) (ratio); higher = more soluble protein in presence of ATP
# Summary of the method: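 Jurkat crude lysate (Dounce-homogenised) was treated with eight concentrations from 0.1 to 10 mM for 10 min at room temperature, then 3 min at 37 °C. It was solubilised with 0.8% NP40 and benzonase (60 min, 4 °C) and ultracentrifuged, and the supernatant was TMT-labelled for LC-MS/MS. Intensities were vsn-normalised, and the value is the fold change against the NP40-processed vehicle per replicate, from three independent experiments.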
Target,NP40-soluble protein abundance (concentration: 0.1mM),NP40-soluble protein abundance (concentration: 0.5mM)
CAPZA2 (UniProt P47755),1.02 ± 0.047,1.06 ± 0.056
KIF11 (UniProt P52732),1.03 ± 0.022,1.03 ± 0.061
UniProt P51649 and related entries,1.03 ± 0.032,1.04 ± 0.063
POLD2 (UniProt P49005),1.05 ± 0.021,1.04 ± 0.059
PCYT1A (UniProt P49585),1.01 ± 0.035,1.02 ± 0.066
CCT6A (UniProt P40227),1.1 ± 0.2,0.877 ± 0.19
GLRX (UniProt P35754),0.897 ± 0.11,0.878 ± 0.15
UniProt P38117 and related entries,0.987 ± 0.014,0.9725 ± 0.0096
UniProt P36639 and related entries,1.03 ± 0.052,1.05 ± 0.054
MTHFS (UniProt P49914),1.04 ± 0.046,1.04 ± 0.074
UniProt P42331-4|P42331,1.02 ± 0.012,1.02 ± 0.06
UniProt P50851 and related entries,1.02 ± 0.049,1 ± 0.024
UniProt P36873 and related entries,1.04 ± 0.08,0.998 ± 0.046
EIF4A3 (UniProt P38919),1.04 ± 0.093,1.06 ± 0.06
RBM5 (UniProt P52756),1.02 ± 0.041,1.106 ± 0.011
UniProt P51149,1.05 ± 0.082,1.04 ± 0.059
RANGAP1 (UniProt P46060),0.961 ± 0.027,0.963 ± 0.029
PRKX (UniProt P51817),0.957 ± 0.021,1.04 ± 0.03
DAP3 (UniProt P51398),0.972 ± 0.1,1.02 ± 0.12
CAMLG (UniProt P49069),0.967 ± 0.064,0.929 ± 0.016
UniProt P48729 and related entries,1.05 ± 0.075,1.08 ± 0.071
TSFM (UniProt P43897),0.992 ± 0.031,0.974 ± 0.032
UniProt P49641 and related entries,1.02 ± 0.065,1.06 ± 0.084
PBX2 (UniProt P40425),0.985 ± 0.12,0.973 ± 0.12

Target,NP40-soluble protein abundance (concentration: 0.1mM),NP40-soluble protein abundance (concentration: 0.5mM)
UniProt P49336 and related entries,1.02 ± 0.067,1.03 ± 0.029
UniProt P52758,0.939 ± 0.044,0.889 ± 0.087
TALDO1 (UniProt P37837),0.964 ± 0.012,0.948 ± 0.033
STT3A (UniProt P46977),1.07 ± 0.084,1.03 ± 0.056
COIL (UniProt P38432),1.05 ± 0.16,1.06 ± 0.12
LMAN1 (UniProt P49257),1.05 ± 0.061,1.06 ± 0.072
GSS (UniProt P48637),1.04 ± 0.078,1.05 ± 0.068
UniProt P41743,1.05 ± 0.079,1.06 ± 0.077
UniProt P36402-5,0.874 ± 0.15,0.872 ± 0.14
UniProt P46934-4,1.04 ± 0.034,1.044 ± 0.0034
KPNA1 (UniProt P52294),1.03 ± 0.026,1.09 ± 0.063
PPM1F (UniProt P49593),1.03 ± 0.026,1 ± 0.054
UniProt P52735 and related entries,0.973 ± 0.061,0.976 ± 0.043
CCT5 (UniProt P48643),1 ± 0.03,1.02 ± 0.065
UniProt P51157 and related entries,1.03 ± 0.028,1.05 ± 0.036
PREP (UniProt P48147),1.06 ± 0.098,1.06 ± 0.096
UniProt P45880 and related entries,0.991 ± 0.07,1.02 ± 0.018
MAGEA9 (UniProt P43362),1.04 ± 0.098,1.08 ± 0.077
FDFT1 (UniProt P37268),1.03 ± 0.061,1.01 ± 0.051
UniProt P47813,0.911 ± 0.038,0.872 ± 0.046
MAPKAPK2 (UniProt P49137),1.01 ± 0.011,0.99 ± 0.049
TAGLN2 (UniProt P37802),0.826 ± 0.051,0.845 ± 0.083
WAS (UniProt P42768),0.917 ± 0.096,0.875 ± 0.081
GDI2 (UniProt P50395),1.05 ± 0.091,1.04 ± 0.049

Target,NP40-soluble protein abundance (concentration: 0.1mM),NP40-soluble protein abundance (concentration: 0.5mM)
UniProt P42898 and related entries,1.05 ± 0.13,1.09 ± 0.1
PIP4K2A (UniProt P48426),0.98 ± 0.052,1.03 ± 0.07
UniProt P42224 and related entries,1.04 ± 0.069,1.04 ± 0.054
PSMC4 (UniProt P43686),1.005 ± 0.0092,0.978 ± 0.024
ETV6 (UniProt P41212),1.18 ± 0.081,1.21 ± 0.051
PAFAH1B1 (UniProt P43034),1.08 ± 0.098,1.02 ± 0.029
UniProt P48059 and related entries,1.04 ± 0.052,1.03 ± 0.043
UniProt P41227,0.996 ± 0.036,0.979 ± 0.062
UniProt P41214,1.02 ± 0.062,1.04 ± 0.078
RPL4 (UniProt P36578),0.953 ± 0.095,0.959 ± 0.14
RASSF2 (UniProt P50749),1.03 ± 0.037,1.03 ± 0.025
UniProt P51148 and related entries,1.03 ± 0.056,1.04 ± 0.048
MTIF2 (UniProt P46199),1.05 ± 0.039,1.06 ± 0.05
HMGCL (UniProt P35914),0.971 ± 0.015,0.949 ± 0.024
HSD17B4 (UniProt P51659),0.989 ± 0.044,1.01 ± 0.017
KPNA2 (UniProt P52292),1.03 ± 0.05,1.06 ± 0.045
MNAT1 (UniProt P51948),0.985 ± 0.055,1 ± 0.046
ADCY7 (UniProt P51828),0.874 ± 0.06,1 ± 0.15
UniProt P49720,0.894 ± 0.071,0.876 ± 0.12
MARCKSL1 (UniProt P49006),1.05 ± 0.11,0.896 ± 0.1
UniProt P49588 and related entries,1.04 ± 0.048,1.04 ± 0.065
ST13 (UniProt P50502),0.931 ± 0.051,0.876 ± 0.067
UniProt P48454 and related entries,1.02 ± 0.016,1.04 ± 0.076
STAT6 (UniProt P42226),1.022 ± 0.006,1.02 ± 0.014

Target,NP40-soluble protein abundance (concentration: 0.1mM),NP40-soluble protein abundance (concentration: 0.5mM)
NDUFA8 (UniProt P51970),0.974 ± 0.063,0.938 ± 0.06
UniProt P50613,1.01 ± 0.065,1.04 ± 0.049
TRAPPC10 (UniProt P48553),1.09 ± 0.064,0.969 ± 0.031
HINT1 (UniProt P49773),0.968 ± 0.04,0.944 ± 0.032
FEN1 (UniProt P39748),1.01 ± 0.02,1.01 ± 0.042
UniProt P40763 and related entries,1.03 ± 0.04,1.06 ± 0.051
PPP1R2 (UniProt P41236),0.874 ± 0.14,0.84 ± 0.14
EIF2B2 (UniProt P49770),1 ± 0.043,0.9607 ± 0.0019
NUP62 (UniProt P37198),0.9848 ± 0.008,0.955 ± 0.059
UniProt P45983-3|P45983-4,1.04 ± 0.068,1.06 ± 0.033
HSPA13 (UniProt P48723),0.995 ± 0.046,1.01 ± 0.031
EIF2S3 (UniProt P41091),1 ± 0.06,1.042 ± 0.0087
TUFM (UniProt P49411),1.07 ± 0.085,1.1 ± 0.071
UniProt P51991 and related entries,1.01 ± 0.094,1.1 ± 0.1
ATP6V1A (UniProt P38606),1.03 ± 0.028,1.02 ± 0.02
RFC5 (UniProt P40937),1.04 ± 0.026,1.13 ± 0.053
ACTR1B (UniProt P42025),0.9986 ± 0.008,0.977 ± 0.072
UniProt P52306 and related entries,0.973 ± 0.065,0.944 ± 0.033
UniProt P40855 and related entries,0.891 ± 0.15,0.855 ± 0.14
GMPS (UniProt P49915),1.04 ± 0.071,1.05 ± 0.056
VASP (UniProt P50552),0.945 ± 0.028,0.992 ± 0.035
UniProt P49840,1.02 ± 0.018,1.04 ± 0.027
CCT4 (UniProt P50991),0.891 ± 0.087,0.92 ± 0.1
UniProt P37275-2|P37275-5,0.967 ± 0.023,0.987 ± 0.048

# An excerpt of the results above, for reference:
Target,NP40-soluble protein abundance (concentration: 0.1mM),NP40-soluble protein abundance (concentration: 0.5mM)
NDUFA8 (UniProt P51970),0.974 ± 0.063,0.938 ± 0.06
UniProt P50613,1.01 ± 0.065,1.04 ± 0.049
TRAPPC10 (UniProt P48553),1.09 ± 0.064,0.969 ± 0.031
HINT1 (UniProt P49773),0.968 ± 0.04,0.944 ± 0.032
FEN1 (UniProt P39748),1.01 ± 0.02,1.01 ± 0.042

# The results go on:

Target,NP40-soluble protein abundance (concentration: 0.1mM),NP40-soluble protein abundance (concentration: 0.5mM)
UniProt P52209 and related entries,0.993 ± 0.054,1.02 ± 0.024
USP8 (UniProt P40818),1.02 ± 0.026,1.02 ± 0.045
UniProt P49796 and related entries,0.978 ± 0.035,0.931 ± 0.054
UniProt P43155 and related entries,1.05 ± 0.071,1.06 ± 0.072
CPOX (UniProt P36551),1.04 ± 0.022,1.04 ± 0.06
RAB27A (UniProt P51159),1.02 ± 0.077,1.03 ± 0.077
RFX3 (UniProt P48380),1.02 ± 0.087,1.02 ± 0.066
CSK (UniProt P41240),1.06 ± 0.064,1.05 ± 0.068
CRIP2 (UniProt P52943),1.01 ± 0.021,0.963 ± 0.025
HLCS (UniProt P50747),1.05 ± 0.096,0.995 ± 0.07
UniProt P51178 and related entries,1.03 ± 0.051,1.04 ± 0.083
GNL1 (UniProt P36915),1.07 ± 0.028,1.04 ± 0.041
UniProt P46939 and related entries,0.9697 ± 0.0074,0.996 ± 0.033
P39880-3|Q13948 and related entries (UniProt Q13948+P39880),0.96 ± 0.039,0.957 ± 0.034
MRPL19 (UniProt P49406),0.974 ± 0.065,0.999 ± 0.059
PRCP (UniProt P42785),0.928 ± 0.013,0.917 ± 0.068
RPL5 (UniProt P46777),0.966 ± 0.035,0.96 ± 0.043
UniProt P49757 and related entries,1.028 ± 0.0086,1.17 ± 0.047
CPT1A (UniProt P50416),0.979 ± 0.041,0.969 ± 0.0099
UniProt P45985,1.04 ± 0.029,1.05 ± 0.057
UniProt P41250,1.02 ± 0.066,1.02 ± 0.062
CAPZA1 (UniProt P52907),1.02 ± 0.015,1.04 ± 0.062
PRIM1 (UniProt P49642),0.976 ± 0.056,1.01 ± 0.041
PIK3CA (UniProt P42336),1.06 ± 0.086,1.05 ± 0.11
